# Percent effect of library compounds

Data taken from ChEMBL document CHEMBL3988442, “University of Dundee, Small-Polar-MMV Screening Library” (2021).

Each number is a percent effect as filed. How 0% and 100% were set is not recorded. Most values in the screen are low, and negative values occur. Compounds were drawn at random from those tested, without regard to their results. Two or more numbers in one place are separate tests of the same structure; such repeats can differ widely.

A: 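Whole-cell growth test on Mycobacterium tuberculosis, read after 4 days in a medium based on cholesterol and the lipid DPPC; the read-out is not stated. Concentration: 50 µM. The record gives no direction; compounds that gave an IC50 in retests scored well above the rest, so higher reads as more growth inhibition. Size under these conditions: about 69,000 compounds, about 370 of them at 50% or above in at least one test.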
B: 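Growth of Mycobacterium tuberculosis over 3 days (7H9 medium with glucose and tyloxapol); the read-out is not stated. Compounds at 50 µM. Direction is inferred from retests: higher values go with more growth inhibition. Size under these conditions: about 69,000 compounds, about 760 of them at 50% or above in at least one test.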

compound | A | B
[H][C@@]12CS(=O)(=O)C[C@]1([H])N(Cc1nccn1C)CCN2Cc1ccncc1 | -3.093 | -22.83 & -8.182
c1ccc(C2=NOC3(CCN(Cc4c[nH]c5ccccc45)CC3)C2)cc1 | -2.41 | 20.03
COc1cccc(CC(=O)NC(C)c2nc3cccnc3n2C(C)C)c1 (stereo unspecified) | -12.16 | -30.89
O=C1NC2(CCN(C(=O)Cc3ccsc3)CC2)CC1c1ccncc1 (stereo unspecified) | -15.59 | -1.586
CC(C)C(Sc1nnnn1C1CC1)C(=O)NCc1cccnc1 (stereo unspecified) | -17.66 | -6.139
COCc1cn(C2CCN(Cc3ccc(Cl)s3)CC2)nn1 | 15.41 | 19.93
Cc1nn(C)c(C)c1C1CCCN1CC(=O)Nc1ccc(Cl)cn1 (stereo unspecified) | -29.82 | -15.89
[H][C@@]12C[C@H](C(=O)Nc3cccnc3)[C@@]([H])(CN(S(=O)(=O)CC(C)C)C1)O2 | -11.01 | -4.894
Cc1occc1C(=O)N1CCC2(CCCN(c3ncc(F)cn3)C2)C1.O=C(O)C(F)(F)F (stereo unspecified) | 12.3 | 6.413
Cc1noc(C)c1CNC(=O)N1CCC(CN2CCC(C)CC2)CC1 | -9.487 & 1.747 | 1.204
Cc1ccccc1OCCC(=O)N1CCCC(n2cncn2)C1 (stereo unspecified) | 7.115 | -7.483
CC1(C)CC(N2CCN(C3CCCC3)C(CCO)C2)CC(C)(C)C1 (stereo unspecified) | 8.045 | 4.233
COCC1CC2(CCN(Cc3cccc(C#N)c3)CC2)CN1C(C)C.O=C(O)C(F)(F)F.O=C(O)C(F)(F)F (stereo unspecified) | -10.62 | -3.767
CC(=O)N1CCc2c(nc(N(C)C)nc2NCCCn2ccnc2)C1 | -15.17 | -8.534
CN(Cc1nccn1C)C1CCCN(CCCc2ccccc2)C1 (stereo unspecified) | 2.003 & -9.485 | 7.244
CC(C)C(=O)Nc1cccc(OCC(=O)NCc2ccccc2F)c1 | 3.314 | 18.34
CC(C)c1noc(CCNC(=O)N2CCN(c3cccs3)CC2)n1 | 18.61 | 0.5327
CSc1ncccc1C(=O)N(C)C(C)Cc1ccccn1 (stereo unspecified) | -0.04021 & -1.515 | -4.17
COc1nc2ccccc2cc1C1CC(=O)Nc2n[nH]c(C3CCC3)c21 (stereo unspecified) | -24.06 | 8.859
COC(=O)C1CCN(C(=O)c2ccc(N(C)S(C)(=O)=O)c(C)c2)CC1 | 12.02 | -10.19
Cc1cccn2cc(CNCc3cccc4c3OCCCO4)nc12 | -9.139 | 17.94 & 12.9
c1ccc2oc(N3CCCCC3Cn3cncn3)nc2c1 (stereo unspecified) | -25.57 | 14.15
COc1nccc(N2CC[C@@H](N3CCN(C)CC3)[C@H](O)C2)c1C#N | -1.833 | 13.02
O=C(O)C(F)(F)F.[H][C@@]12OCCN(C(=O)C3=CCCC3)[C@@]1([H])CC[C@@H]2Oc1ccccn1 | 11.06 | -0.0829
O=C(O)C1(n2cccn2)CCN(Cc2nc(-c3ccccc3)no2)CC1 | 22.55 | 29.84
CC(=O)N[C@H]1CN(CC(=O)NCc2ccccc2C)C[C@@H]1C(C)C | 8.278 | 17.67
CCOCc1cccc(S(=O)(=O)N2CCSCC2)c1 | 11.29 | 17.46
COc1ncc(CN2CCCC2c2[nH]ncc2C(=O)N(C)C)cn1 (stereo unspecified) | 11.79 | 20.67
O=C(Nc1cccnc1)c1noc2c1CN(S(=O)(=O)C1CC1)CC2 | 18.32 | -5.832
Cc1nc(C)n(CC2CCCN2CCOc2ccccc2C#N)n1 (stereo unspecified) | 9.475 | -20.45
CCc1nccn1C1CCCN(C(=O)Cc2cn3ccsc3n2)C1 (stereo unspecified) | -18.98 | -20.37
O=C(O)C(F)(F)F.[H][C@]12CCN(c3ncccn3)[C@@]1([H])CCC(COCC(=O)N1CCCC1)O2 (stereo partly specified) | 13.33 | -12.27
CC(=O)N1CCC[C@@H](NCc2ccc(F)cc2)[C@@H]1c1ccc(C)s1 | 6.791 | -0.1787
O=C1NCCN(C(=O)CN2CCOC2=O)C1c1cccc(F)c1 (stereo unspecified) | -2.413 | -3.445 & 16.82
O=C(CCNS(=O)(=O)c1cccnc1)N1CCOC(c2ccccc2)C1 (stereo unspecified) | -2.466 | 31.98 & 0.4398
Cc1cnc(N2CCC3(CC2)CC3CN(C)Cc2cccnc2)nc1.O=C(O)C(F)(F)F.O=C(O)C(F)(F)F (stereo unspecified) | -17.52 | 1.727 & -10.51
CCn1c(C2CCCNC2)nn(Cc2ccc(C(=O)NC)o2)c1=O (stereo unspecified) | -9.857 | 5.993 & -4.557
OCCOCCN1CCCC1c1cccc(Cl)c1 (stereo unspecified) | -31.32 | -2.926 & 3.898
CC(C)CN(Cc1nnc(-c2ccco2)o1)CC(C)C | 34.7 | 38.22 & 44.84
Cn1[nH]c(C2CC2)c(-c2ccc3c(c2)OCO3)c1=N | -18.16 | -19.84
O=C(CCn1ccc(=O)[nH]c1=O)N1CCC(Oc2ccccn2)CC1 | 11.75 | -9.606 & 17.14
CC(C)(C)OC(=O)NCCNC(=O)c1ccc2cc[nH]c2c1 | -13.87 | -7.933
CC(C)c1nnc2n1CCN(C(=O)c1cn(-c3ccccc3)nn1)C2 | 4.631 | -4.325
COCc1nn(C(C)C)c2c1CCN(Cc1cccs1)C2.O=C(O)C(F)(F)F | -29.59 | -14.21
O=C(O)C(F)(F)F.[H][C@]12CCCN(Cc3cccc(C)n3)[C@@]1([H])CN(C(=O)c1ccco1)C2 | -9.986 | -0.1659
[H][C@@]12C[C@H](C(=O)NC3CCC3)[C@@]([H])(CN(C(=O)Nc3ccc(F)cc3)C1)O2 | 9.367 | 13
CCC(CCN)n1ccc(C(F)(F)F)n1 (stereo unspecified) | -22.93 | -5.594
[H][C@]12CC[C@]([H])(CN(C(=O)C3CCC3)C1)N(C(=O)c1cccc(C#N)c1)C2 | -3.132 & -10.23 | -9.103
CN(Cc1ccccc1F)C(=O)COC(=O)c1cc(Cl)c[nH]1 | -21.84 | -32.42
CNC(=O)c1noc(Cn2ncc3ccccc3c2=O)n1 | -5.411 | -27.44
CC(C)C(=O)NC1CCCc2nc(N3CCOCC3)ncc21 (stereo unspecified) | 10.19 | 19.58
N#CC1(C(=O)N2CCC(Nc3cccnn3)CC2)CCCCC1 | 3.514 | 22.43
Cc1ccc2nc(CN(Cc3ccc(C#N)cc3)C(C)C)cc(=O)n2c1 | 4.336 | -5.097
CC(C)CNC(=O)c1ccc(NC(=O)NC(C)c2ccccn2)cc1 (stereo unspecified) | 37.65 | 13.6 & 27.98
CC(NS(C)(=O)=O)C(=O)Nc1ccc2oc(C3CC3)nc2c1 (stereo unspecified) | 9.125 | 27.77
Cc1cc(S(=O)(=O)N2CCCN3CCCC3C2)ccc1F (stereo unspecified) | 5.771 | 10.6 & 23.55
CNS(=O)(=O)c1cccc(C(C)NCc2ccc(C)c(C)c2)c1 (stereo unspecified) | -63.6 | -72.19 & 40.39
Cn1c(=O)c2cc(C(=O)NCCc3ccccc3)ccc2n(C)c1=O | -28.34 | -8.961
O=C(NCCN1CCCC1)c1cc2c(s1)CCN2C(=O)c1ccccc1 | -30.89 | -10.24
Cc1cccc(CN2CCC3(CCC(CC(=O)N(C)C)CC3)CC2)n1.O=C(O)C(F)(F)F | -23.76 | 8.435
O=C1CCCN1Cc1ccc(C(=O)N2CCCC2c2cccs2)cc1 (stereo unspecified) | 4.584 | 12.12
CCc1noc(C(C)N(C)Cc2cc(Br)ccc2OC)n1 (stereo unspecified) | -12.56 | 12.32 & 21.86
Cc1ccc(C(=O)Nc2cn[nH]c2)cc1 | 1.706 | 10.11
Cc1nnc(NCc2cccc(OCc3ccccn3)c2)c(C#N)c1C | -9.328 | 6.399
Cc1cnn(CC2CCCN2C(=O)Cc2n[nH]c3ccccc23)c1 (stereo unspecified) | -9.119 | -21.49
CC(C)N1CCCC(N2CCOC3(CCCC3)C2)C1=O (stereo unspecified) | -7.348 | -7.551
Cc1nc(N)ncc1C(=O)N1CCCC(CCc2ccc(F)c(F)c2)C1 (stereo unspecified) | -25.76 | -2.58 & -7.356
Cc1ccc(C(=O)Nc2cn[nH]c2)cc1C | -20.11 | -5.207
Cc1ccc(NC2CCN(C(=O)Cc3cccs3)CC2)nn1 | -1.888 | 1.732
CCc1ccc2nc(C)cc(C(=O)N[C@@H]3CNC[C@H]3O)c2c1 | -36.31 | 5.601 & -36.42
Cc1ncc(CN(C)CC2CCCN2c2cccnn2)s1 (stereo unspecified) | -7.442 | -20.85
Cc1nc(C(C)C)sc1C(=O)NCC(C)(C)N1CCOCC1 | -19.79 | -10.46 & 0.1445
Cc1ncc(S(C)(=O)=O)c(N(C)CCCc2cnn(C)c2)n1 | 2.592 | 16.51
CCOCCC(=O)NC(Cc1ccc(C)cc1)c1ccccn1 (stereo unspecified) | -5.882 & 13.08 | -29.68
COc1cc(F)ccc1-c1nc2c([nH]1)c(C1CC1)nn2C | -13.98 | 37.79
CCOc1ccccc1C1=CCN(C(=O)C2CCN(C)C(=O)C2)CC1 (stereo unspecified) | 1.134 | -17.7
Cc1c[nH]c(CN(C)C(=O)C(C)(C)NC(=O)c2cccs2)n1 | -22.54 | -26.56
CC(C)NC(=O)N1CCC2(CCC(=O)N2CCN2CCCC2)CC1.O=C(O)C(F)(F)F | 4.068 | -7.005
Cc1ncsc1CCC(=O)NCc1cc2n(n1)CCN(C(=O)N(C)C)C2 | -13.97 | -17.25 & -1.934
Cc1cnn(CC2CN(Cc3noc(C4CC4)n3)CCO2)c1 (stereo unspecified) | 2.861 | 19.8
CC(NC(=O)Nc1ccncc1)c1ccc2c(c1)CC(=O)N2 (stereo unspecified) | 13.05 & -8.88 | 4.398
Cc1nn(C)c(Cl)c1C1CCCN1C(=O)c1ccncc1 (stereo unspecified) | -10.2 | 13.83 & -4.151

The last 7 entries again:

compound	A	B
CCOc1ccccc1C1=CCN(C(=O)C2CCN(C)C(=O)C2)CC1 (stereo unspecified)	1.134	-17.7
Cc1c[nH]c(CN(C)C(=O)C(C)(C)NC(=O)c2cccs2)n1	-22.54	-26.56
CC(C)NC(=O)N1CCC2(CCC(=O)N2CCN2CCCC2)CC1.O=C(O)C(F)(F)F	4.068	-7.005
Cc1ncsc1CCC(=O)NCc1cc2n(n1)CCN(C(=O)N(C)C)C2	-13.97	-17.25 & -1.934
Cc1cnn(CC2CN(Cc3noc(C4CC4)n3)CCO2)c1 (stereo unspecified)	2.861	19.8
CC(NC(=O)Nc1ccncc1)c1ccc2c(c1)CC(=O)N2 (stereo unspecified)	13.05 & -8.88	4.398
Cc1nn(C)c(Cl)c1C1CCCN1C(=O)c1ccncc1 (stereo unspecified)	-10.2	13.83 & -4.151